{
  "source": "patent US11913075B2",
  "about": "“Methods and compositions for detecting and modulating an immunotherapy resistance gene signature in cancer” (The Broad Institute, Inc., priority 2017, dated 2024)",
  "key": {"melanoma cells [1]": {"test_system": "melanoma cells", "assay": "Senescence associated alpha-galactosidase activity and morphology in melanoma cells", "conditions": "abemaciclib 500 nM 10 days vs DMSO"}, "[2]": {"test_system": "A2058 melanoma cell line (RB-deficient)", "assay": "scRNA-seq of A2058 melanoma cell line before and after abemaciclib for 1 week", "assay_type": "cell-based", "conditions": "abemaciclib 1 week"}, "melanoma cells [3]": {"test_system": "melanoma cells", "assay": "40 human cytokines/chemokines measured in conditioned media of abemaciclib treated cancer cells", "conditions": "abemaciclib 500 nM 7 days vs DMSO"}, "[4]": {"test_system": "breast cancer cell lines (M361, MCF and M453)", "assay": "Resistance program expression in published profiles of abemaciclib-treated breast cancer cell lines (Goel et al., 2017)", "assay_type": "cell-based"}, "[5]": {"test_system": "collection of cancer cell lines", "assay": "Efficacy of CDK4/6 inhibitors across a collection of cancer cell lines vs. resistance program expression (Gong et al., 2017)", "conditions": "P=7.15*10^−6, mixed-effects"}, "solid tumors": {"test_system": "solid tumors", "conditions": "reference (30), cited from earlier work"}, "[6]": {"test_system": "UACC257 melanoma cell line (RB-sufficient)", "assay": "scRNA-seq of UACC257 melanoma cell line before and after abemaciclib for 1 week", "assay_type": "cell-based", "description": "(§1) Applicants performed scRNA-seq on these cell lines before and after treatment with abemaciclib for 1 week (FIG. 41).\n(§2) To test this hypothesis, Applicants studied the effect of abemaciclib on the immune resistance program in melanoma cell lines. […] Applicants profiled each cell line with scRNA-seq before and after treatment with abemaciclib for 1 week (FIGS. 49D-E), analyzing over 23,000 cells in these and follow-up conditions (below).\n(§3) For droplet-based scRNA-seq, experiments were performed on the 10× Genomics Chromium platform, with the Chromium Single Cell 3′ Library & Gel Bead Kit v2 and Chromium Single Cell 3′ Chip kit v2 according to the manufacturer's instructions in the Chromium Single Cell 3′ Reagents Kits V2 User Guide. Briefly, 6,000 cells were re suspended in PBS supplemented with 0.04% BSA and loaded to each channel. The cells were then partitioned into Gel Beads in Emulsion in the GemCode instrument, where cell lysis and barcoded reverse transcription of RNA occurred, followed by amplification, shearing and 5′ adaptor and sample index attachment."}, "breast cancer tumors": {"test_system": "breast cancer tumors", "assay": "Resistance program expression in breast cancer tumors from abemaciclib treated mice (Goel et al., 2017)", "conditions": "in vivo mouse models, abemaciclib vs vehicle, published data"}, "[7]": {"test_system": "patient-derived melanoma cells with autologous tumor infiltrating lymphocytes (TILs)", "assay": "Patient-derived co-culture of melanoma cells and autologous TILs, scRNA-seq", "assay_type": "cell-based", "conditions": "for expression of the uICR signature / immune resistance program: abemaciclib 1 week pre-treatment, with and without exposure to autologous TILs"}, "[8]": {"test_system": "IGR37 melanoma cell line (RB-sufficient)", "assay": "scRNA-seq of IGR37 melanoma cell line before and after abemaciclib for 1 week", "assay_type": "cell-based", "description": "as §1, §2, §3"}, "[9]": {"test_system": "639 human cancer cell lines", "assay": "Search for immune sensitizing drugs: efficacy of 131 drugs across 639 cancer cell lines vs. resistance program expression (Garnett et al., 2012)", "conditions": "639 cell lines, controlling for cancer types"}, "[10]": {"conditions": "published data set (30), breast cancer cell lines and in vivo models"}},
  "note": "Entries after “also recorded” stand apart in the source; their conditions may differ. At least one compound was matched to its structure with a doubt left.",
  "data": [
    {"smiles": "CCN1CCN(Cc2ccc(Nc3ncc(F)c(-c4cc(F)c5nc(C)n(C(C)C)c5c4)n3)nc2)CC1", "note": "[abemaciclib]", "values": [
      {"measurement": "alpha-galactosidase activity (senescence associated)", "setting": "melanoma cells [1]", "value": "induced"},
      {"measurement": "morphological alterations that reflect cellular senescence", "setting": "melanoma cells [1]", "value": "induced"},
      {"measurement": "uICR expression / immune resistant state", "setting": "[2]", "value": "did not show changes; also recorded: did not repress"},
      {"measurement": "secreted CCL20", "setting": "melanoma cells [3]", "value": "induction; also recorded: induced"},
      {"measurement": "secreted CX3CL1", "setting": "melanoma cells [3]", "value": "induction; also recorded: induced"},
      {"measurement": "secreted macrophage inhibition factor (MIF)", "setting": "melanoma cells [3]", "value": "induction; also recorded: induced"},
      {"measurement": "ICR state / uICR (resistance) program expression", "setting": "[4]; breast cancer cell lines, abemaciclib vs DMSO, published data", "value": "represses"},
      {"measurement": "uICR-down signature expression", "setting": "[4]; [10]", "value": "induced"},
      {"measurement": "uICR-up signature expression", "setting": "[4]; [10]", "value": "strongly repressed"},
      {"measurement": "relation between efficacy of CDK4/6 inhibition and expression of the resistance program", "setting": "[5]", "value": "correlated"},
      {"measurement": "sensitization to anti-PDL1", "setting": "solid tumors; mouse models, RB-dependent", "value": "sensitize solid tumors to anti-PDL1"},
      {"measurement": "mechanism of anti-tumor activity", "setting": "solid tumors", "value": "inducing type III interferon production and suppressing T regulatory cells"},
      {"measurement": "expression of the uICR state (immune resistance program)", "setting": "[6]; UACC257, abemaciclib 1 week vs before treatment, scRNA-seq", "value": "decrease"},
      {"measurement": "DNMT1 expression", "setting": "[6]; UACC257, post-treatment", "value": "repressed"},
      {"measurement": "ERV-3 expression", "setting": "[6]; UACC257, post-treatment", "value": "induced"},
      {"measurement": "expression of MITF signature / MITF program", "setting": "[6]; UACC257, post-treatment", "value": "induces; also recorded: higher portion of cells with increased expression"},
      {"measurement": "expression of the SASP module", "setting": "[6]; UACC257, post-treatment, transcriptional level", "value": "induces; also recorded: significantly induced"},
      {"measurement": "ICR state / resistance program expression", "setting": "breast cancer tumors", "value": "represses"},
      {"measurement": "expression of the uICR signature / immune resistance program", "setting": "[7]", "value": "further intensifies these effects"},
      {"measurement": "expression of the uICR signature / immune resistance program", "setting": "[7]; listed as Abemaciclib", "value": "further repressed"},
      {"measurement": "sensitive (ICR-low) subpopulation of cells", "setting": "[7]; abemaciclib-treated cells, post-TILs", "value": "increase"},
      {"measurement": "expression of the uICR state (immune resistance program)", "setting": "[8]; IGR37, abemaciclib 1 week vs before treatment, scRNA-seq", "value": "decrease"},
      {"measurement": "DNMT1 expression", "setting": "[8]; IGR37, post-treatment", "value": "repressed"},
      {"measurement": "ERV-3 expression", "setting": "[8]; IGR37, post-treatment", "value": "induced"},
      {"measurement": "expression of MITF signature / MITF program", "setting": "[8]; IGR37, post-treatment", "value": "induces; also recorded: higher portion of cells with increased expression"},
      {"measurement": "expression of the SASP module", "setting": "[8]; IGR37, post-treatment, transcriptional level", "value": "induces; also recorded: significantly induced"}
    ]},
    {"smiles": "CC(=O)c1c(C)c2cnc(Nc3ccc(N4CCNCC4)cn3)nc2n(C2CCCC2)c1=O", "note": "[palbociclib]", "values": [
      {"measurement": "relation between efficacy of CDK4/6 inhibition and expression of the resistance program", "setting": "[5]", "value": "correlated"},
      {"measurement": "rank among drugs significantly more toxic to cell lines overexpressing the immune resistance program", "setting": "[9]", "value": "top scoring drug"}
    ]}
  ]
}
